Some of the results follow. Values are raw readings; no control value is given beside them.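 Primary screen: polymyxin B was added at a level permeabilizing Salmonella outer membranes while sparing inner membranes. DMSO wells, both with and without polymyxin B, established maximum growth. Plate-to-plate variation meant each plate was ranked on its own, and the lowest-OD600 compounds were selected as hits.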
System: Salmonella enterica serovar Typhimurium SL1344
Assay: bacterial growth OD600 after 18 h with compound and polymyxin B; higher = more bacterial growth (less inhibition)
Settings: 50 µM, Mueller-Hinton broth

Structure (SMILES)	bacterial growth OD600 (polymyxin B 0.75 µg/mL)	bacterial growth OD600 (polymyxin B 1 µg/mL)
CC1CN(CC(=O)NCc2nc(-c3ccccc3)cs2)Cc2cc(Cl)ccc2O1 (centres undefined)	0.005	–
CN(C(=O)c1ccco1)C(Cc1ccccc1Cl)C1CCN(Cc2cccc3cccnc23)CC1 (centres undefined)	0.836	–
C=CC[C@@H]1CC=C[C@@H](C)N1C(=O)CC1(c2ccccc2OC)CC(=O)N(CCCOC)C1=O (some centres undefined)	0.008	–
O=C1CCCCN1CC(=O)N1CCc2[nH]nc(-c3ccc(Cl)cc3)c2C1	0.766	–
COc1ccccc1N1CCN(c2nc(CNC(=O)c3cccc(F)c3)nc3ccccc23)CC1	0.75	–
O=C(Cn1nnnc1CN1CCCCCC1)N1CC[C@@H](O)C1	0.846	–
CC(NC(=O)c1ccc2oc(CCc3ccccc3)nc2c1)c1ccncn1 (centres undefined)	0.781	–
CCN1CCCC1CNC(=O)CCC1CCN(Cc2ccc(Cl)s2)CC1 (centres undefined)	–	0.943
COC(=O)c1ccc(-c2nc(CN(C)C(C)c3ccon3)c(C)o2)cc1 (centres undefined)	–	0.838

Source: the supplement of paper PMC12889115
